Measured data: PubChem BioAssay AID602196 (INSERM, 2012)
Assay: 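Genes whose knock-down alters cisplatin killing of lung cancer cells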. Cells: human A549 lung cancer cells. Knock-down reagent: siRNA pair against human genes. Duration: 48 h transfection before cisplatin; time from cisplatin to read-out not stated. Challenge: cisplatin at a dose killing half of control-siRNA cells; exact dose and duration not given. Read-out: 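Cisplatin cell death as a shift from the 50% death seen with control siRNA; siRNAs toxic or growth-blocking alone scored 0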. Direction: two-siRNA summed score (-2 to +2): higher = both siRNAs protect from cisplatin killing; -2 means both sensitise. Call rule: 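siRNAs harmful alone (LDH or WST-1) get 0; others get +1 for less and -1 for more cisplatin killing; genes are active when the two siRNAs give the same sign, summing to ±2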. Meaning of the calls: active = both siRNAs shift cisplatin killing the same way; inactive = no consistent shift, or siRNA harmful alone.
The whole screen tested about 23,000 reagents; shown is a part drawn at random. Over the whole deposit, 455 (2%) were called active. 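Active includes both protection and sensitisation; some change values fall well beyond the stated -50 to +50 range.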 Reagents against one gene are numbered here. Not all columns of the deposit are shown. The record does not give: the amount of reagent.

two-siRNA summed score (-2 to +2), by target and reagent
LOC441506: #1 0 inactive
MACO1: #1 0 inactive
LOC85028: #1 0 inactive
IL36B: #1 0 inactive
UBE2T: #1 -2 active
RAET1E: #1 0 inactive
HRC: #1 1 inactive
PSMD5: #1 0 inactive
LOC401070: #1 1 inactive
UAP1L1: #1 0 inactive
LOC146053: #1 0 inactive
TPP2: #1 0 inactive
LOC153910: #1 0 inactive
LOC393078 (retired record): #1 0 inactive
RABL3: #1 1 inactive
LOC440611: #1 2 active
MTUS1: #1 0 inactive
ASL: #1 0 inactive
LRRC25: #1 0 inactive
CRNKL1: #1 0 inactive
ADGRA2: #1 0 inactive
LOC387805: #1 0 inactive
FAM237A: #1 0 inactive
SLC31A2: #1 0 inactive
UBXN10: #1 0 inactive
FIS1: #1 0 inactive
SFXN2: #1 0 inactive
LOC342865: #1 0 inactive
EIF3I: #1 0 inactive
KIR2DS1: #1 0 inactive
LOC391827: #1 0 inactive
LYST: #1 -1 inactive
TSKU: #1 0 inactive
CDKN1A: #1 0 inactive

6 entries from above, arranged by “two-siRNA summed score (-2 to +2)”, ascending.
target	reagent no.	two-siRNA summed score (-2 to +2)	Call
MTUS1	1	0	inactive
ASL	1	0	inactive
LRRC25	1	0	inactive
CRNKL1	1	0	inactive
ADGRA2	1	0	inactive
LOC440611	1	2	active

Next entries follow.
two-siRNA summed score (-2 to +2), by target and reagent
LOC440943: #1 2 active
PHF19: #1 0 inactive
MYH14: #1 -2 active
ZFP36L2: #1 0 inactive
CLEC2B: #1 0 inactive
RAD21: #1 0 inactive
NOP2: #1 0 inactive
PELO: #1 0 inactive
SLC6A19: #1 0 inactive
BRMS1: #1 -1 inactive
HEATR6: #1 1 inactive
ARX: #1 1 inactive
MYO3B: #1 0 inactive
SNX29: #1 0 inactive; #2 0 inactive
RARS1: #1 -1 inactive
FKBP1B: #1 0 inactive
RELL2: #1 0 inactive
WDFY3-AS2: #1 0 inactive
KCNE5: #1 -1 inactive
SPMAP2: #1 0 inactive
ZNF135: #1 0 inactive
TAF11L1: #1 1 inactive
